Source: the supplement of paper PMC4604168 (melanoma cell lines)
The other results are listed elsewhere or left out. Single values are uncertain, as repeats are few or missing.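 Cells were imaged in 1,536-well plates, and nuclei stained with an antibody against cleaved PARP were counted against all DNA-stained nuclei to give the apoptosis fraction. Screening doses were chosen to leave most cells alive, and resting and induced cleaved-PARP levels differ strongly between cell lines.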

Test system: RVH-421
Assay: cleaved PARP positive nuclei fraction relative to DMSO control; melanoma cells; higher = more apoptosis
Details: library dose: low library concentration; 72 h

In order of rising “cleaved PARP positive nuclei fraction” value:
1. COc1cc([C@@H]2c3cc4c(cc3[C@@H](O[C@@H]3O[C@@H]5CO[C@@H](C)O[C@H]5[C@H](O)[C@H]3O)[C@H]3COC(=O)[C@H]23)OCO4)cc(OC)c1O [etoposide] + CN(c1ncccc1CNc1nc(Nc2ccc3c(c2)CC(=O)N3)ncc1C(F)(F)F)S(C)(=O)=O [PF562271] (first compound 0.02 µM, partner dose 0.08 µM)  39.6%
2. CC[C@]1(O)C[C@H]2CN(CCc3c([nH]c4ccccc34)[C@@](C(=O)OC)(c3cc4c(cc3OC)N(C=O)[C@H]3[C@@](O)(C(=O)OC)[C@H](OC(C)=O)[C@]5(CC)C=CCN6CC[C@]43[C@@H]65)C2)C1 [vincristine] + C=C(c1ccc(C(=O)O)cc1)c1cc2c(cc1C)C(C)(C)CCC2(C)C [Bexarotene] (first compound 0.0001 µM, partner dose 2 µM)  66.2%
3. O=C(Nc1cc(C(F)(F)F)cc(C(F)(F)F)c1)c1cc(Cl)ccc1O + Nc1ncn([C@H]2C[C@H](O)[C@@H](CO)O2)c(=O)n1 [decitabine] (first compound 0.016 µM, partner dose 0.1 µM)  91.9%
4. Cc1cc(Nc2cc(N3CCN(C)CC3)nc(Sc3ccc(NC(=O)C4CC4)cc3)n2)n[nH]1 [Tozasertib] + Cc1cc(Nc2cc(N3CCN(C)CC3)nc(/C=C/c3ccccc3)n2)n[nH]1 [ENMD2076] (first compound 0.006 µM, partner dose 0.04 µM)  97.5%
5. Cc1cc(Nc2cc(N3CCN(C)CC3)nc(Sc3ccc(NC(=O)C4CC4)cc3)n2)n[nH]1 [Tozasertib] + N#CC[C@H](C1CCCC1)n1cc(-c2ncnc3[nH]ccc23)cn1 [ruxolitinib] (first compound 0.006 µM, partner dose 1 µM)  98.8%
6. CC[C@]1(O)C[C@H]2CN(CCc3c([nH]c4ccccc34)[C@@](C(=O)OC)(c3cc4c(cc3OC)N(C=O)[C@H]3[C@@](O)(C(=O)OC)[C@H](OC(C)=O)[C@]5(CC)C=CCN6CC[C@]43[C@@H]65)C2)C1 [vincristine] + Cn1c(Nc2ccc(C(F)(F)F)cc2)nc2cc(Oc3ccnc(-c4ncc(C(F)(F)F)[nH]4)c3)ccc21 [CHIR265] (first compound 0.0001 µM, partner dose 0.08 µM)  138%
7. CC[C@]1(O)C[C@H]2CN(CCc3c([nH]c4ccccc34)[C@@](C(=O)OC)(c3cc4c(cc3OC)N(C=O)[C@H]3[C@@](O)(C(=O)OC)[C@H](OC(C)=O)[C@]5(CC)C=CCN6CC[C@]43[C@@H]65)C2)C1 [vincristine] + Cn1c(=O)n(-c2ccc(C(C)(C)C#N)cc2)c2c3cc(-c4cnc5ccccc5c4)ccc3ncc21 [NVP-BEZ235] (first compound 0.0001 µM, partner dose 0.004 µM)  142%
8. O=C(Nc1cc(C(F)(F)F)cc(C(F)(F)F)c1)c1cc(Cl)ccc1O + C[C@]1(c2nc3c(C(N)=O)cccc3[nH]2)CCCN1 [Veliparib] (first compound 0.016 µM, partner dose 1.4 µM)  148%
9. O=C(/C=C/c1cccnc1)NCCCCC1CCN(C(=O)c2ccccc2)CC1 + C#Cc1cccc(Nc2ncnc3cc(OCCOC)c(OCCOC)cc23)c1 [erlotinib] (first compound 0.01 µM, partner dose 0.8 µM)  150%
10. COc1cc([C@@H]2c3cc4c(cc3[C@@H](O[C@@H]3O[C@@H]5CO[C@@H](C)O[C@H]5[C@H](O)[C@H]3O)[C@H]3COC(=O)[C@H]23)OCO4)cc(OC)c1O [etoposide] + CCCS(=O)(=O)Nc1ccc(F)c(C(=O)c2c[nH]c3ncc(Cl)cc23)c1F [PLX4720] (first compound 0.02 µM, partner dose 0.08 µM)  204%
11. Cc1cn(-c2cc(NC(=O)c3ccc(C)c(Nc4nccc(-c5cccnc5)n4)c3)cc(C(F)(F)F)c2)cn1 [nilotinib] + CO[C@H]1C[C@@H]2CC[C@@H](C)[C@@](O)(O2)C(=O)C(=O)N2CCCC[C@H]2C(=O)O[C@H]([C@H](C)C[C@@H]2CC[C@@H](OCCO)[C@H](OC)C2)CC(=O)[C@H](C)/C=C(\C)[C@@H](O)[C@@H](OC)C(=O)[C@H](C)C[C@H](C)/C=C/C=C/C=C/1C [everolimus] (first compound 0.2 µM, partner dose 0.02 µM)  545%
